Laboratory results taken from publication PMC3986390.
Positions count from the first letter of the chain named. No constants are given. Whether binding was seen depends on the method and setting. In cells and extracts the contact can be indirect. Some entries that bind do so weakly or less than the wild type. Where a sequence is shown, tags or fusion partners need not be part of it.

Chains of the proteins cited; added tags and fusions are not shown.
UniProt P11142: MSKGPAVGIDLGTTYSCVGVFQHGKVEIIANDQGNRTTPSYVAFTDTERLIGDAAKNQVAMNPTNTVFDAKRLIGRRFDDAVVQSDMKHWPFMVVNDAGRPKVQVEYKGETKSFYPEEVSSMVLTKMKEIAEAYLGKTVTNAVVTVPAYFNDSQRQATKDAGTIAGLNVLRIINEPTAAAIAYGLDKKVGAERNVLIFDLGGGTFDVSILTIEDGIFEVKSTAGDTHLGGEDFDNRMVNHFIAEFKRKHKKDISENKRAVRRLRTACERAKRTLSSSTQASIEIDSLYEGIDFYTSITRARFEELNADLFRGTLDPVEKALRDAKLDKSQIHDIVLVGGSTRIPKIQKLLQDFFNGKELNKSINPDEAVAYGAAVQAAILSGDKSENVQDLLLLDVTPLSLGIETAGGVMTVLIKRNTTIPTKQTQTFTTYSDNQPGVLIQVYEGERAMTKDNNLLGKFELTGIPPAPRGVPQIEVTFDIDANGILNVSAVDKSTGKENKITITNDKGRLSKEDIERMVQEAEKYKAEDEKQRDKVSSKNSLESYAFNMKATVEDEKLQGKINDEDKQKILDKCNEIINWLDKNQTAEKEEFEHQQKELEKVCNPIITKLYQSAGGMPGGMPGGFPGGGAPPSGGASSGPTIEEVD

Assays:
[1] = molecular target: T1, wild-type HA-tagged DNAJB12 (human) (UniProt Q9NXW2); assay: co-IP; HeLa cells treated with 1 mM DSP cross-linker in PBS for two hours at 4°C, RIPA extracts, immunoprecipitated with anti-B12 monoclonal antibody and protein A/G beads, cross-links reversed, immunoblotted with anti-Hsc70 and anti-HA
T1 sequence: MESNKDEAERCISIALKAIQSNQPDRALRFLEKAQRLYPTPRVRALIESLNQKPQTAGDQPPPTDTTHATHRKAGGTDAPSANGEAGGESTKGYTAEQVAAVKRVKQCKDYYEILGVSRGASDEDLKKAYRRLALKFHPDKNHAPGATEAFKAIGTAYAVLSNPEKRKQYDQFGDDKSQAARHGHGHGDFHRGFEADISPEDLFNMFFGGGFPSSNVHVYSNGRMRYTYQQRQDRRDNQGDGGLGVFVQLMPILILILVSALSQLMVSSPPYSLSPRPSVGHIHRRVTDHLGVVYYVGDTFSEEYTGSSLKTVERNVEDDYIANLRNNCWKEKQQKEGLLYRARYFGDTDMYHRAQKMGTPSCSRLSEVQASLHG

[2] = molecular target: T2, HA-tagged DNAJB12 H138Q J-domain mutant (human) (UniProt Q9NXW2); assay: as above
T2 sequence: T1 sequence with H138Q

binding [1]: binds
binding [2]: no binding
Substance: Hsc70 (from UniProt P11142 1-646)
